Source: patent US5968791A, “Plant lysophosphatidic acid acyltransferases” (Calgene, Inc., priority 1995, dated 1999)

Experiment: sn-2 fatty acyl composition of TAG by modified lipase digestion
Parameters: species or system Brassica napus
Conditions: structured TAG standards and line 23-198 oil (Table 7)

| SMILES | Mol % 12:0 at sn-2 measured |
| --- | --- |
| CCCCCCCC/C=C\CCCCCCCC(=O)OC[C@@H](COC(=O)CCCCCCCCCCC)OC(=O)CCCCCCC/C=C\CCCCCCCC [(R)LaOO] | 2.6 Mol % and 2.1 Mol % |
| CCCCCCCC/C=C\CCCCCCCC(=O)OC[C@H](COC(=O)CCCCCCCCCCC)OC(=O)CCCCCCC/C=C\CCCCCCCC [(S)LaOO] | 2.5 Mol % and 4.2 Mol % |
| CCCCCCCC/C=C\CCCCCCCC(=O)OCC(COC(=O)CCCCCCC/C=C\CCCCCCCC)OC(=O)CCCCCCCCCCC [OLaO (sn)] | 96.3 Mol % |

“And” between values parts separate entries of the source, which are not always exact repeats. Equal values may be shown once.
